Among all 390,000 compounds or so, about 910 (0.23%) were called active. Inconclusive results, whose numbers are uncertain, are shown with a selection of clear calls. Calls follow the shape of the dose curve; as a rule, active = well fitted inhibition curve with a large enough effect; inconclusive = small, poorly fitted or top-dose-only effect; inactive = no such curve, though single readings can be large or run the other way. A potency beside an inconclusive call is a rough fit, not a confirmed value.
Target: Ubiquitin carboxyl-terminal hydrolase 1 (Homo sapiens) (UniProt O94782)
Experiment: Inhibitors of USP1/UAF1: Primary Screen; also: nearly all actives have a fitted effect of over 60% in size
Conditions: recombinant USP1/UAF1, Ub-Rhodamine cleavage fluorescence; activity change, negative = inhibition: at 57.1 µM (top of the series)
Method in brief: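 In this screen, compounds sit with the deubiquitinase complex (1nM) for 15 min at room temperature before Ub-Rho is added at 150nM final. Fluorescence rise is then followed for 6 reads every 60 seconds.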
% is scaled to controls: 0 for no effect and ±100 for the full control effect; potency is read from the fitted curve at half-maximal effect.

Sequences of proteins named here, by UniProt entry; tags and fusion partners are left off. A change or cut given only in a name is not applied to a line headed by its entry.
UniProt O94782: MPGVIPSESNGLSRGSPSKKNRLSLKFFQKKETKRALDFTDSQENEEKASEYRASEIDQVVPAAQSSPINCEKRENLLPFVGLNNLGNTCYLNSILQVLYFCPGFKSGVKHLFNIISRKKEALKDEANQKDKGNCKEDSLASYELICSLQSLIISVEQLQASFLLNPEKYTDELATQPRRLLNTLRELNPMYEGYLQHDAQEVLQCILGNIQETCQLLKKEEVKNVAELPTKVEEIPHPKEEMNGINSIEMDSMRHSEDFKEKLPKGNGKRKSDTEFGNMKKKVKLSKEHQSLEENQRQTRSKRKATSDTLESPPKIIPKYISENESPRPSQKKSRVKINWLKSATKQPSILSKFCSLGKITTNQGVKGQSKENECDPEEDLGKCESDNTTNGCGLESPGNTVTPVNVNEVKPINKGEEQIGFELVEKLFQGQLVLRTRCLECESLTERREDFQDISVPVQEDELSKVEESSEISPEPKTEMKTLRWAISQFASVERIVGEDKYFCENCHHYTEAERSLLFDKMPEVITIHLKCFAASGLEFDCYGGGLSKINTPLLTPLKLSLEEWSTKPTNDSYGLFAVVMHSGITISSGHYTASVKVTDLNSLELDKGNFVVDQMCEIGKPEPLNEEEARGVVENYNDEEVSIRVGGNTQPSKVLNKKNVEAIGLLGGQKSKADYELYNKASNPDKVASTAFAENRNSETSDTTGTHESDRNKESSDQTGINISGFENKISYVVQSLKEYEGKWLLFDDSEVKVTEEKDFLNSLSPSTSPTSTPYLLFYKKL

Potency, inconclusive:
O=C1CC(/C=C/c2ccncc2)=Nc2ccccc2N1 20 µM [inhibitor, partial curve], CC(NC(=O)CC1Sc2ccccc2NC1=O)c1ccccc1 (centres undefined) 44.7 µM [inhibitor, partial curve, poor fit], CCCn1c(CCC(=O)Nc2ccc(OCC)cc2)nc2cccnc21 0.141 µM [inhibitor, full curve, poor fit], Cc1cc(C)c(C(=O)N2CCCC(N3CCN(c4cccc(C(F)(F)F)c4)CC3)C2)o1 (centres undefined) 31.6 µM [inhibitor, partial curve], COC(=O)c1scc(-c2ccc(C)cc2)c1S(=O)(=O)N1CCN(c2ccc(C(C)=O)cc2)CC1 0.141 µM [inhibitor, full curve, poor fit], CCOC(=O)C1=C(COc2ccccc2)NC(=O)NC1c1cccc([N+](=O)[O-])c1 (centres undefined) 39.8 µM [inhibitor, single point], Cc1cc(NC(=O)COC(=O)C(Nc2ccc(C(F)(F)F)cc2Cl)C(C)C)no1 (centres undefined) 44.7 µM [inhibitor, partial curve], CCc1ccccc1NC(=O)CCNS(=O)(=O)c1ccc2c(c1)CCN2C(=O)C1CC1 0.251 µM [inhibitor, full curve, poor fit], O=C1CCCN1CCCNc1ncccc1[N+](=O)[O-] 31.6 µM [inhibitor, single point], COc1ccc(C(=O)OC2=C(C(=O)c3ccccc3)N(C)S(=O)(=O)c3ccccc32)cc1OC 1.78 µM [inhibitor, partial curve, poor fit], Cc1c(C(=O)N2CCC(c3nc4ccccc4s3)CC2)oc2ccc(Cl)cc12 44.7 µM [inhibitor, partial curve], CCCCCCCCCCCCN1[C@@H](CC(=O)O)c2cc(C(F)(F)F)ccc2S1(=O)=O 31.6 µM [inhibitor, single point], COc1ccccc1N1CCN(S(=O)(=O)c2c(C)sc3ncn(CC(=O)N(C)c4ccc(Cl)cc4)c(=O)c23)CC1 50.1 µM [inhibitor, partial curve, poor fit], CN(C)c1ccc(C#Cc2ccc3cc(CCO)oc(=O)c3c2)cc1 39.8 µM [inhibitor, partial curve], CC1=N/C(=C\c2ccc([N+](=O)[O-])cc2)C(=O)N1c1cc(Cl)ccc1C 0.631 µM [inhibitor, full curve, poor fit], COC(=O)[C@@H]1C[C@@H](c2ccccc2)[C@H](C)C1(C)C 44.7 µM [inhibitor, partial curve, poor fit], Cc1ccc(OCc2ccc(-c3nc(C#N)c(NCc4cccnc4)o3)o2)cc1 15.8 µM [inhibitor, partial curve], COc1cc(NC(=O)NC(C)c2c(-n3cccc3)sc3c2CCCC3)cc(OC)c1OC (centres undefined) 50.1 µM [inhibitor, partial curve, poor fit], CCOc1ccc(CNC(=O)Cn2cc3c(n2)-c2c(oc(C(=O)N4CCOCC4)c2C)CC3)cc1 17.8 µM [inhibitor, partial curve], CCC(=Nc1ccc(N)cc1)C1=C(O)C(C(=O)OC)C(C)(C)CC1=O (centres undefined) 1 µM [inhibitor, full curve], CC(=O)Nc1ccccc1NC(=O)C/C(C)=N/NC(=O)C(=O)N1CCCCC1 10 µM [inhibitor, single point], Nc1nc(NCc2ccco2)nc(N2CCN(Cc3ccccc3)CC2)c1[N+](=O)[O-] 7.94 µM [inhibitor, single point], O=S(=O)(c1ccccc1)c1nc(-c2ccccc2Cl)oc1NCCCN1CCOCC1 11.2 µM [inhibitor, partial curve], Cc1ccc(Cl)cc1NC(=O)Cn1c(=O)n(CCC(=O)NCc2ccc3c(c2)OCO3)c(=O)c2sccc21 0.398 µM [inhibitor, full curve, poor fit], CCCC(=O)Nc1nnc(S(=O)(=O)N2CCCCCC2)s1 35.5 µM [inhibitor, partial curve, poor fit], COc1ccc(C)cc1NC(=O)NC(C)c1c(-n2cccc2)sc(C)c1C (centres undefined) 7.08 µM [inhibitor, full curve], COc1c(O)c(=O)n2c3ccccc3c3ccnc1c32 39.8 µM [inhibitor, partial curve, poor fit], Cc1cc2nc3c(=O)n(C4CCCCC4)c(=O)[nH]c3nc2cc1N 4.47 µM [inhibitor, full curve, poor fit], Cc1cc2nn(-c3ccc(F)cc3)nc2cc1NC(=O)c1cccc2c(Cl)cccc12 2.82 µM [inhibitor, partial curve], COc1ccc(CCNC(=S)NC(=O)/C=C/c2ccc(C)cc2)cc1OC 0.562 µM [inhibitor, full curve, poor fit]

Activity change, negative = inhibition, inactive:
Cc1ccc(Cl)cc1NC(=O)C(C)n1nc(-c2ccccc2)ccc1=O (centres undefined) -15.2%, Cc1ccc(-n2ncc3c(NCCC4=CCCCC4)ncnc32)cc1 -9.25%, CNC(=O)CSc1nc2nn(-c3ccccc3)c(=O)c-2c2n1CCCCC2 -1.87%, Nc1nc(SCC(=O)Nc2ccccc2Oc2ccccc2)n[nH]1 3.81%, CCCn1c(O)c(N=Nc2ccc3ccccc3n2)c2ccccc21 -17.1%, Cc1cc(C)n(/N=C\c2c(O)ccc3ccccc23)c(=O)c1C(N)=O -12.4%, COc1ccccc1N1CCN(CCCNC(=O)c2cnn(-c3cccc(Cl)c3)c2C2CCN(C(=O)OC(C)(C)C)CC2)CC1 1.16%, COc1ccc(S(=O)(=O)Nc2ccc(CC#N)cc2)cc1 -20%, COc1ccc(-c2cn(-c3ccccc3)nc2C(=O)O)cc1OC -4.88%

— PubChem BioAssay AID743255 (National Center for Advancing Translational Sciences (NCATS), 2014)
